PubChem BioAssay AID1259425 | University of Nebraska Medical Center – 2018
The whole screen tested about 14,000 reagents; below is an unselected part. Further read-outs or replicates are left out here. No sequences are given here. The record does not give: the time to read-out.

Screen: 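Seek colon cancer weak points whose silencing resembles KSR1 loss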 (primary screen)
Cell system: HCT116 human colon cancer cells
Reagent: siRNA pool against human genes, 50 nM siRNA
Measured: 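After 50 nM siRNA pool, branched-DNA assay measures six marker transcripts per well, minus blank, normalised to the geometric mean of two housekeeping transcripts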
Direction: BNIP3L mRNA: higher = more BNIP3L transcript after knockdown

target gene | BNIP3L mRNA, set 1
B4GALT7 (GeneID 11285) | 0.0693
HIPK1 (GeneID 204851) | 0.118
CABP2 (GeneID 51475) | 0.159
CSTF3 (GeneID 1479) | 0.183
UBXN6 (GeneID 80700) | 0.117
SENP1 (GeneID 29843) | 0.063
ABRA (GeneID 137735) | 0.0689
EFNA2 (GeneID 1943) | 0.0951
NUP107 (GeneID 57122) | 0.128
RCN1 (GeneID 5954) | 0.0746
CHEK2 (GeneID 11200) | 0.116
HSPG2 (GeneID 3339) | 0.149
HLA-DQB1 (GeneID 3119) | 0.0667
UNC45A (GeneID 55898) | 0.0785
PLXNB2 (GeneID 23654) | 0.286
IFNA14 (GeneID 3448) | 0.106
TMEM14B (GeneID 81853) | 0.0568
TTC28 (GeneID 23331) | 0.123
KCNA5 (GeneID 3741) | 0.0358
NUF2 (GeneID 83540) | 0.155
CABS1 (GeneID 85438) | 0.14
TSHZ1 (GeneID 10194) | 0.188
RNF4 (GeneID 6047) | 0.118
ELP3 (GeneID 55140) | 0.159
CLEC4A (GeneID 50856) | 0.0487
GH2 (GeneID 2689) | 0.0555
WDR4 (GeneID 10785) | 0.376
ARHGDIA (GeneID 396) | 0.0907
ALDH1A1 (GeneID 216) | 0.0973
PCDHA12 (GeneID 56137) | 0.151
CERK (GeneID 64781) | 0.116
EDARADD (GeneID 128178) | 0.0783
TRAFD1 (GeneID 10906) | 0.053
SCO2 (GeneID 9997) | 0.137
KLK11 (GeneID 11012) | 0.231
EBI3 (GeneID 10148) | 0.0654
SIX6 (GeneID 4990) | 0.155

Next part (7 carried over from the part before).
target gene | BNIP3L mRNA, set 1
CERK (GeneID 64781) | 0.116
EDARADD (GeneID 128178) | 0.0783
TRAFD1 (GeneID 10906) | 0.053
SCO2 (GeneID 9997) | 0.137
KLK11 (GeneID 11012) | 0.231
EBI3 (GeneID 10148) | 0.0654
SIX6 (GeneID 4990) | 0.155
DDX39B (GeneID 7919) | 0.106
FSCB (GeneID 84075) | 0.31
NUP42 (GeneID 11097) | 0.155
UPB1 (GeneID 51733) | 0.105
UGT1A10 (GeneID 54575) | 0.13
SCGB2A1 (GeneID 4246) | 0.101
WDR83 (GeneID 84292) | 0.177
CCL14 (GeneID 6358) | 0.0551
ZNF107 (GeneID 51427) | 0.118
PCSK4 (GeneID 54760) | 0.109
STK33 (GeneID 65975) | 0.0636
RELB (GeneID 5971) | 0.063
GRPR (GeneID 2925) | 0.108
LIG4 (GeneID 3981) | 0.0478
HSF2BP (GeneID 11077) | 0.221
F11 (GeneID 2160) | 0.125
ZNF3 (GeneID 7551) | 0.0907
GON4L (GeneID 54856) | 0.083
GALK2 (GeneID 2585) | 0.108
RBKS (GeneID 64080) | 0.133
SOCS1 (GeneID 8651) | 0.169
RBCK1 (GeneID 10616) | 0.0793
KLRC4 (GeneID 8302) | 0.0472
TBXT (GeneID 6862) | 0.309
EIF4EBP3 (GeneID 8637) | 0.155
PPP4R3B (GeneID 57223) | 0.153
